The results in this text go back to patent publication US20050075292A1.

No constants are given. Whether binding was seen depends on the method and setting. Some binding calls cover weakened binding; strength is not graded here.

The assay has as its target T1, CXCR4 chemokine receptor on the cell surface (human), P61073.
T1 chain: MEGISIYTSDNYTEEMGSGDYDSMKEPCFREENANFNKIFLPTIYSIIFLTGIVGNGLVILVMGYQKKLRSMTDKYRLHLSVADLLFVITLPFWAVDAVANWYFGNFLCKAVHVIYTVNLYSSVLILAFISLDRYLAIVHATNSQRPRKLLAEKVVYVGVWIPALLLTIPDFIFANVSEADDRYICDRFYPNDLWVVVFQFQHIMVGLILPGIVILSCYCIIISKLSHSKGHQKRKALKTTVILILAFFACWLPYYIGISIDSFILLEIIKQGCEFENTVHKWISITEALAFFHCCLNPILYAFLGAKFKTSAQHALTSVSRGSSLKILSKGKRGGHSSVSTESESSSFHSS
The assay can be described thus: confocal microscopy of CEM X4/R5 cells; on paraformaldehyde-fixed cells hBD-2 was found bound to the cell membrane, detected with anti-hBD-2 antibody. The settings on record: remark: other sources report otherwise.

B1: recombinant human beta-defensin-2 (peptide)
chain: GIGDPVTCLKSGAICHPVFCPRRYKQIGTCGLPGTKCCKKP
On to B1, for which the binding entry is “binds”.
